Source: PMC11065421, “An RNA-dependent and phase-separated active subnuclear compartment safeguards repressive chromatin domains” (Molecular Cell, 2024)
Results are given in words; binding and its absence hold for the method and conditions named. For some assays here: In cells and extracts the contact can be indirect. Some entries that bind do so weakly or less than the wild type. For some assays here: Tags and fused reporters may be left off the sequences shown. Each block holds one molecule with its values, some of them ahead of it.

By UniProt entry, the sequences of proteins in these tests, tags left out.
UniProt Q8K2F0: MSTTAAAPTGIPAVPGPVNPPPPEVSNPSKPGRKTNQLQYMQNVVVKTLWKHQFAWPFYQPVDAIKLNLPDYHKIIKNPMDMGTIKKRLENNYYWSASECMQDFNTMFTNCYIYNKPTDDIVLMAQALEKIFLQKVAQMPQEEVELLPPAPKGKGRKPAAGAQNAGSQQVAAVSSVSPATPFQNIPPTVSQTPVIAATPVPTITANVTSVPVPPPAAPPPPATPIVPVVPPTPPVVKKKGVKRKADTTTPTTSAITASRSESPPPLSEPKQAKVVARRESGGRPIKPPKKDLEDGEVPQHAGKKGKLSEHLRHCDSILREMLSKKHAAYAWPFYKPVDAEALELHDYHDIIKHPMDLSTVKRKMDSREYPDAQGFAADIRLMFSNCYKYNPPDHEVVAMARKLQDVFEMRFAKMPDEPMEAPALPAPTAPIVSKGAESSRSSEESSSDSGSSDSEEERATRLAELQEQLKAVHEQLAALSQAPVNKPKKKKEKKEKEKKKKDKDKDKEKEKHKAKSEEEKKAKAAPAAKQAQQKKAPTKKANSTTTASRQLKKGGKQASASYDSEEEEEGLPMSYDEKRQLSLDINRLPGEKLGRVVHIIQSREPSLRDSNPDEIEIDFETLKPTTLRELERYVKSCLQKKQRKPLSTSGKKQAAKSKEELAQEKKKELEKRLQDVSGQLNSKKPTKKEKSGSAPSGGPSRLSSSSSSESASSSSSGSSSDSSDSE

What was measured:
[1] = target: T1, recombinant mGFP-BAZ2AN (UniProt Q91YE5); assay: co-sedimentation; droplets of 20 μg recombinant protein formed in 30 μg ESC nuclear extract with 1% PEG8000, 30 min at room temperature, pelleted at 10,000xg; pellet analysed by mass spectrometry; only the target purified
T1 sequence: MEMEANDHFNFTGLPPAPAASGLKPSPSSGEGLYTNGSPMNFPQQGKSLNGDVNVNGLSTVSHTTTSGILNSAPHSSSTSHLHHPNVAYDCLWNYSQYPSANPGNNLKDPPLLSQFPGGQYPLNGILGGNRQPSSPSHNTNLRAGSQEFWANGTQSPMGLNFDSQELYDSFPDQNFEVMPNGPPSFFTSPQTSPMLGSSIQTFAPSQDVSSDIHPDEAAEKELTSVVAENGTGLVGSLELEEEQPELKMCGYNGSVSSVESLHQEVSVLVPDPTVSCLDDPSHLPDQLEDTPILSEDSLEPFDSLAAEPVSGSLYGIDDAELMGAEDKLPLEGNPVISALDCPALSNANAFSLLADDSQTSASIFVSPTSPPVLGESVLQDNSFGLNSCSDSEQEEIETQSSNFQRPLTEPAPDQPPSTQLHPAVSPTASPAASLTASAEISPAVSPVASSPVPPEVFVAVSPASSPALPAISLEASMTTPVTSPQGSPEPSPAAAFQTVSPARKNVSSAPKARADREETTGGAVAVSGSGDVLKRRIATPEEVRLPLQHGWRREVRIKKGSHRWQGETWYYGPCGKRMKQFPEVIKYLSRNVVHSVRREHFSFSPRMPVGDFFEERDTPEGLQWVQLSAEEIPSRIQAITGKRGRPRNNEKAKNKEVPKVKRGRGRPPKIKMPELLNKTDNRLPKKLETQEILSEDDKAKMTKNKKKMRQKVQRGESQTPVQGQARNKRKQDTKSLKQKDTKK

[2] = target: mGFP-BAZ2AWT (UniProt Q91YE5); assay: co-IP; GFP-Trap magnetic agarose on MNase-digested nuclear extract (200 mM NaCl) of ESC lines, overnight at 4°C; BAZ2A detected with BAZ2A antibodies
[3] = target: F/H-BAZ2A (HEK293T) (UniProt Q91YE5); assay: co-IP; IP from co-transfected HEK293T cells (Figures S1J, S1L); which tag was precipitated is not given
[4] = target: recombinant BAZ2AN (UniProt Q91YE5); assay: negative-stain electron microscopy; SEC fraction of BAZ2AN corresponding to >600 kDa, 2% uranyl acetate, 120 kV Tecnai Spirit; both purified
[5] = target: recombinant BAZ2AN (UniProt Q91YE5); assay: native gel or EMSA; SEC fractions on non-denaturing PAGE (no SDS) compared with denaturing PAGE; silver staining; both purified
[6] = target: T2, GST-BAZ2A_(N/WT) (UniProt Q91YE5); assay: pull-down; GST-tagged protein on Glutathione Sepharose 4B beads, pre-cleared mGFP-tagged protein added in AM200 buffer (200 mM KCl) for 4 h at 4°C; washes with 300 mM NaCl, 0.5% NP-40; blots with GST and GFP antibodies; both purified
T2 sequence: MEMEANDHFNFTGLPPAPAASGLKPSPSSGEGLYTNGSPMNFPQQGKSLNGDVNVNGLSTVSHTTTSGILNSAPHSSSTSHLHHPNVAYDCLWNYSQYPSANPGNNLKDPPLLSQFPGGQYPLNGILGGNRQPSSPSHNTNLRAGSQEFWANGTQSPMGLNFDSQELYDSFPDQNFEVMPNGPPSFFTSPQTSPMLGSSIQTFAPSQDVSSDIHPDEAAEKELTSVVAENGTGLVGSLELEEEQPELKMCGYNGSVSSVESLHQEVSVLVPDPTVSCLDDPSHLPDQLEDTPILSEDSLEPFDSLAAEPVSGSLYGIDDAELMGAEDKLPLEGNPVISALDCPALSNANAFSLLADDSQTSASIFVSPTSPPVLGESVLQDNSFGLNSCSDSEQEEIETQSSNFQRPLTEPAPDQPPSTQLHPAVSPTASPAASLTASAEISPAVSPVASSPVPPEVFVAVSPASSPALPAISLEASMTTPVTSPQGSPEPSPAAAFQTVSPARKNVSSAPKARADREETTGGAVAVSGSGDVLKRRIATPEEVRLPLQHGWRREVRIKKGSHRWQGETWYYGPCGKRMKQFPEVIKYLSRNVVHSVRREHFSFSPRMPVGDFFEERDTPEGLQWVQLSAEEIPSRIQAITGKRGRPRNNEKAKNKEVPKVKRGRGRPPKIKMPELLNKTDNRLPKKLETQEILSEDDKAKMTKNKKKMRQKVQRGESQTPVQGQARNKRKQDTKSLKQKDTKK

[7] = target: T3, F/H-BAZ2AN (UniProt Q91YE5); assay: co-IP; anti-HA magnetic beads on MNase-digested nuclear extract (200 mM NaCl) of co-transfected HEK293T cells, overnight at 4°C; Western blot
T3 sequence: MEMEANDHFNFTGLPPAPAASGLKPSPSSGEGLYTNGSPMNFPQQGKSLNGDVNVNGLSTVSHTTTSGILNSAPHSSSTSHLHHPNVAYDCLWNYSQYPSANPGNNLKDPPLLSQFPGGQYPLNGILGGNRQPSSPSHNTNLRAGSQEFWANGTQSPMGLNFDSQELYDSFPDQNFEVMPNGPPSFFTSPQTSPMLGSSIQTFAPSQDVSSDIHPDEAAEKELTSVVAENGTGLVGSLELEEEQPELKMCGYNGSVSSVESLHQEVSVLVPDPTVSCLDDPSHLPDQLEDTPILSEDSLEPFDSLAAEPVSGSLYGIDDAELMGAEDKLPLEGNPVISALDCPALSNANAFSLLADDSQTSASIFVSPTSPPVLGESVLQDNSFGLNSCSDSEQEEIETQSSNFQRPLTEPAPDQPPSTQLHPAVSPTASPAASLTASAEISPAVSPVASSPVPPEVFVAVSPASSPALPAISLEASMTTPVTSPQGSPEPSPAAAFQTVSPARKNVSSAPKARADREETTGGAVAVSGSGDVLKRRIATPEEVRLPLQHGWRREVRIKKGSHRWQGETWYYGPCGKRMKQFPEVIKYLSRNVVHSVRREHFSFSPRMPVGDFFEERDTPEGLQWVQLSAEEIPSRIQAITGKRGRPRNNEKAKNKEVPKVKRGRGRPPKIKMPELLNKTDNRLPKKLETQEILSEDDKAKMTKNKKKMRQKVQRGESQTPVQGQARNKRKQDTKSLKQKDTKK

- binding [1]: binds
Molecule: BRD3 (from UniProt Q8K2F0 1-726)

- binding [2]: binds
Molecule: endogenous BAZ2A (from UniProt Q91YE5 1-1889)

- binding [3]: binds
Molecule: mGFP-BAZ2A (HEK293T) (from UniProt Q91YE5 1-1889)

- binding [1]: binds
B1: RAD21 (protein, UniProt Q61550 1-635)
chain: MFYAHFVLSKRGPLAKIWLAAHWDKKLTKAHVFECNLESSVESIISPKVKMALRTSGHLLLGVVRIYHRKAKYLLADCNEAFIKIKMAFRPGVVDLPEENREAAYNAITLPEEFHDFDQPLPDLDDIDVAQQFSLNQSRVEEITMREEVGNISILQENDFGDFGMDDREIMREGSAFEDDDMLVSTSASNLLLEPEQSTSNLNEKMNHLEYEDQYKDDNFGEGNDGGILDDKLISNNDGGIFDDPPALSEAGVMLPEQPAHDDMDEDDNGSLGGPDSPDSVDPVEPMPTMTDQTTLVPNEEEAFALEPIDITVKETKAKRKRKLIVDSVKELDSKTIRAQLSDYSDIVTTLDLAPPTKKLMMWKETGGVEKLFFLPAQPLWNNRLLKLFTRCLTPLVPEDLRKRRKGGEADNLDEFLKEFENPEVPREEQQPQQQQPQPQRDVIDEPIIEEPSRLQDSVMEASRTTIEESAMPPPPPQGVKRKAGQIDPEPSIPPQQVEQMEIPPVELPPEEPPNICQLIPELELLPEKEKEKEKEKEEEEEEEDEDASGGDQDQEERRWNKRTQQMLHGLQRALAKTGAESISLLELCRNTNRKQAAAKFYSFLVLKKQQAIELTQEEPYSDIIATPGPRFHII

- binding [4]: binds
- binding [5]: binds
B2: recombinant BAZ2AN (domain or fragment, UniProt Q91YE5 1-744, looked up)
chain: MEMEANDHFNFTGLPPAPAASGLKPSPSSGEGLYTNGSPMNFPQQGKSLNGDVNVNGLSTVSHTTTSGILNSAPHSSSTSHLHHPNVAYDCLWNYSQYPSANPGNNLKDPPLLSQFPGGQYPLNGILGGNRQPSSPSHNTNLRAGSQEFWANGTQSPMGLNFDSQELYDSFPDQNFEVMPNGPPSFFTSPQTSPMLGSSIQTFAPSQDVSSDIHPDEAAEKELTSVVAENGTGLVGSLELEEEQPELKMCGYNGSVSSVESLHQEVSVLVPDPTVSCLDDPSHLPDQLEDTPILSEDSLEPFDSLAAEPVSGSLYGIDDAELMGAEDKLPLEGNPVISALDCPALSNANAFSLLADDSQTSASIFVSPTSPPVLGESVLQDNSFGLNSCSDSEQEEIETQSSNFQRPLTEPAPDQPPSTQLHPAVSPTASPAASLTASAEISPAVSPVASSPVPPEVFVAVSPASSPALPAISLEASMTTPVTSPQGSPEPSPAAAFQTVSPARKNVSSAPKARADREETTGGAVAVSGSGDVLKRRIATPEEVRLPLQHGWRREVRIKKGSHRWQGETWYYGPCGKRMKQFPEVIKYLSRNVVHSVRREHFSFSPRMPVGDFFEERDTPEGLQWVQLSAEEIPSRIQAITGKRGRPRNNEKAKNKEVPKVKRGRGRPPKIKMPELLNKTDNRLPKKLETQEILSEDDKAKMTKNKKKMRQKVQRGESQTPVQGQARNKRKQDTKSLKQKDTKK
notes: BAZ2A (TIP5) N-terminal region, aa 1-744; also called BAZ2AN-Hist; source: E. coli BL21(DE3), purified (Glutathione Sepharose, PreScission cleavage, HisTrap)

- binding [6]: binds
B3: recombinant mGFP-BAZ2AN (domain or fragment, UniProt Q91YE5 1-744)
chain: MEMEANDHFNFTGLPPAPAASGLKPSPSSGEGLYTNGSPMNFPQQGKSLNGDVNVNGLSTVSHTTTSGILNSAPHSSSTSHLHHPNVAYDCLWNYSQYPSANPGNNLKDPPLLSQFPGGQYPLNGILGGNRQPSSPSHNTNLRAGSQEFWANGTQSPMGLNFDSQELYDSFPDQNFEVMPNGPPSFFTSPQTSPMLGSSIQTFAPSQDVSSDIHPDEAAEKELTSVVAENGTGLVGSLELEEEQPELKMCGYNGSVSSVESLHQEVSVLVPDPTVSCLDDPSHLPDQLEDTPILSEDSLEPFDSLAAEPVSGSLYGIDDAELMGAEDKLPLEGNPVISALDCPALSNANAFSLLADDSQTSASIFVSPTSPPVLGESVLQDNSFGLNSCSDSEQEEIETQSSNFQRPLTEPAPDQPPSTQLHPAVSPTASPAASLTASAEISPAVSPVASSPVPPEVFVAVSPASSPALPAISLEASMTTPVTSPQGSPEPSPAAAFQTVSPARKNVSSAPKARADREETTGGAVAVSGSGDVLKRRIATPEEVRLPLQHGWRREVRIKKGSHRWQGETWYYGPCGKRMKQFPEVIKYLSRNVVHSVRREHFSFSPRMPVGDFFEERDTPEGLQWVQLSAEEIPSRIQAITGKRGRPRNNEKAKNKEVPKVKRGRGRPPKIKMPELLNKTDNRLPKKLETQEILSEDDKAKMTKNKKKMRQKVQRGESQTPVQGQARNKRKQDTKSLKQKDTKK

- binding [7]: binds
B4: mGFP-BAZ2AN (domain or fragment, UniProt Q91YE5 1-744)
chain: MEMEANDHFNFTGLPPAPAASGLKPSPSSGEGLYTNGSPMNFPQQGKSLNGDVNVNGLSTVSHTTTSGILNSAPHSSSTSHLHHPNVAYDCLWNYSQYPSANPGNNLKDPPLLSQFPGGQYPLNGILGGNRQPSSPSHNTNLRAGSQEFWANGTQSPMGLNFDSQELYDSFPDQNFEVMPNGPPSFFTSPQTSPMLGSSIQTFAPSQDVSSDIHPDEAAEKELTSVVAENGTGLVGSLELEEEQPELKMCGYNGSVSSVESLHQEVSVLVPDPTVSCLDDPSHLPDQLEDTPILSEDSLEPFDSLAAEPVSGSLYGIDDAELMGAEDKLPLEGNPVISALDCPALSNANAFSLLADDSQTSASIFVSPTSPPVLGESVLQDNSFGLNSCSDSEQEEIETQSSNFQRPLTEPAPDQPPSTQLHPAVSPTASPAASLTASAEISPAVSPVASSPVPPEVFVAVSPASSPALPAISLEASMTTPVTSPQGSPEPSPAAAFQTVSPARKNVSSAPKARADREETTGGAVAVSGSGDVLKRRIATPEEVRLPLQHGWRREVRIKKGSHRWQGETWYYGPCGKRMKQFPEVIKYLSRNVVHSVRREHFSFSPRMPVGDFFEERDTPEGLQWVQLSAEEIPSRIQAITGKRGRPRNNEKAKNKEVPKVKRGRGRPPKIKMPELLNKTDNRLPKKLETQEILSEDDKAKMTKNKKKMRQKVQRGESQTPVQGQARNKRKQDTKSLKQKDTKK
